# Results reported in publication PMC5996148.
# “And” between values parts separate entries of the source, which are not always exact repeats. Equal entries are not always repeated. The list shows a part of the results.
# How the values were obtained:
# Experiment in all cases: protein microarray (ProtoArray v5.0), streptavidin-Alexa Fluor 647
# Settings in all cases: 3'-biotin; 20 mM Tris (pH 7.5), 5 mM MgCl2, 100 mM KCl, 0.1% Tween-20, A/T-rich and random oligonucleotide blockers; temperature not stated; high values mean tight binding
# DYDC1 (human) = tested on: DYDC1 (human)
# DYNC1LI2 (human) = tested on: DYNC1LI2 (human)
# [1] = tested on: Dehydrogenase/reductase SDR family member 1 (human)
# [2] = tested on: Density-regulated protein (human)
# [3] = tested on: Deoxycytidine kinase (human)
# [4] = tested on: Differentially expressed in FDCP 6 homolog (human)
# [5] = tested on: Dihydroorotate dehydrogenase, mitochondrial (human)
# [6] = tested on: Double-stranded RNA-binding protein Staufen homolog 1 (human)
# E2F4 (human) = tested on: E2F4 (human)
# ECE1 (human) = tested on: ECE1 (human)
sequence,measurement,setting,value
GGGGACAGGGGTATGGGGAGGGG [G4-3 biotinylated (CtG)],binding signal,DYDC1 (human),-0.338 z-score
same,binding signal,DYNC1LI2 (human),-0.331 z-score
same,binding signal,[1],-0.335 z-score and -0.325 z-score
same,binding signal,[2],3.01 z-score
same,binding signal,[3],-0.326 z-score
same,binding signal,[4],-0.333 z-score
same,binding signal,[5],-0.316 z-score
same,binding signal,[6],3.65 z-score
same,binding signal,E2F4 (human),-0.328 z-score
same,binding signal,ECE1 (human),-0.316 z-score

# Laid out differently: results already given.
sequence	measurement	setting	value
GGGGACAGGGGTATGGGGAGGGG [G4-3 biotinylated (CtG)]	binding signal	[1]	-0.335 z-score and -0.325 z-score
same	binding signal	[6]	3.65 z-score
